In PMC9761386 one finds binding data, which are given here for 7 molecules.

The chains behind the UniProt entries cited, without tags or fusion partners. Residues count along the entry.
UniProt Q9EP73, residues 19-290: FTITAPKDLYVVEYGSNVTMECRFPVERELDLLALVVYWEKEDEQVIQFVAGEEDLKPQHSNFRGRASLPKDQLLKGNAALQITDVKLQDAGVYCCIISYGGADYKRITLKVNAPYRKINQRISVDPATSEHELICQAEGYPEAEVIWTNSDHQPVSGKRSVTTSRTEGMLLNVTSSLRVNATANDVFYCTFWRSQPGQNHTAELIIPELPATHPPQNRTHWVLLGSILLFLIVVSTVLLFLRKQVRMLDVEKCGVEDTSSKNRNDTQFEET

These are yes or no findings as the source states them, for the method shown. In cells and extracts the contact can be indirect. Here binding means that the protein was enriched with, or labelled near, the bait; the list need not be complete.

Sequences and labels used below:
B1: ARF GTPase-activating protein GIT1 (protein, UniProt Q68FF6 1-770)
chain: MSRKGPRAEVCADCSAPDPGWASISRGVLVCDECCSVHRSLGRHISIVKHLRHSAWPPTLLQMVHTLASNGANSIWEHSLLDPAQVQSGRRKANPQDKVHPIKSEFIRAKYQMLAFVHKLPCRDDDGVTAKDLSKQLHSSVRTGNLETCLRLLSLGAQANFFHPEKGTTPLHVAAKAGQTLQAELLVVYGADPGSPDVNGRTPIDYARQAGHHELAERLVECQYELTDRLAFYLCGRKPDHKNGHYIIPQMADRSRQKCMSQSLDLSELAKAAKKKLQALSNRLFEELAMDVYDEVDRRENDAVWLATQNHSTLVTERSAVPFLPVNPEYSATRNQGRQKLARFNAREFATLIIDILSEAKRRQQGKSLSSPTDNLELSARSQSELDDQHDYDSVASDEDTDQEPLPSAGATRNNRARSMDSSDLSDGAVTLQEYLELKKALATSEAKVQQLMKVNSSLSDELRRLQREIHKLQAENLQLRQPPGPVPPPSLPSERAEHTLMGPGGSTHRRDRQAFSMYEPGSALKPFGGTPGDELATRLQPFHSTELEDDAIYSVHVPAGLYRIRKGVSASSVPFTPSSPLLSCSQEGSRHASKLSRHGSGADSDYENTQSGDPLLGLEGKRFLELSKEDELHPELESLDGDLDPGLPSTEDVILKTEQVTKNIQELLRAAQEFKHDSFVPCSEKIHLAVTEMASLFPKRPALEPVRSSLRLLNASAYRLQSECRKTVPPEPGAPVDFQLLTQQVIQCAYDIAKAAKQLVTITTREKKQ
B2: Glutathione Peroxidase 7 (protein, UniProt Q99LJ6 19-186)
chain: QSEQDFYDFKAVNIRGKLVSLEKYRGSVSLVVNVASECGFTDQNYRALQQLQRDLGPHHFNVLAFPCNQFGQQEPDTNREIENFARRTYSVSFPMFSKIAVTGTGAHPAFKYLTQTSGKEPTWNFWKYLVDPDGKVVGAWDPTVPVAEIKPRITEQVMKLILRKREDL
B3: Rho Gtpase Activating protein 29 (protein, UniProt Q8CGF1 1-1266)
chain: MIAHKQKKAKKKRVWASGQPSAAITTSEMGLKSVSSSSSFDPEYIKELVNDVRKFSHMLLYLKEAILSDCFKEVIHIRLDELLRVLKSILSKHQNLSSVDLQSAAEVLTAKVKAVNFTEVNEENKNDIFREVFSSIETLAFTFGNILTNFLMGDVGSDSILRLPISRESKSFENISVDSVDLPHEKGNFSPIELDNLLLKNTDSIELALSYAKTWSKYTKNIVSWVEKKLNLELESTRNIVKLAEATRSSIGIQEFMPLQSLFTNALLSDIHSSHLLQQTIAALQANKFVQPLLGRKNEMEKQRKEIKDLWKQQQNKLLETETALKKAKLLCMQRQDEYEKAKSSMFRAEEEQLSSSVGLAKNLNKQLEKRRRLEEEALQKVEEANEHYKVCVTNVEERRNDLENTKREILTQLRTLVFQCDLTLKAVTVNLFHMQQLQAASLANSLQSLCDSAKLYDPGQEYSEFVKATSSSELEEKVDGNVNKQMTNSPQTSGYEPADSLEDVARLPDSCHKLEEDRCSNSADMTGPSFVRSWKFGMFSDSESTGGSSESRSLDSESISPGDFHRKLPRTPSSGTMSSADDLDEREPPSPSEAGPNSLGAFKKTLMSKAALTHKFRKLRSPTKCRDCDGIVMFPGVECEECLLVCHRKCLENLVIICGHQKLQGKMHIFGAEFIQVAKKEPDGIPFVLKICASEIENRALCLQGIYRVCGNKIKTEKLCQALENGMHLVDISEFSSHDICDVLKLYLRQLPEPFILFRLYKEFIDLAKEIQHVNEEQEAKKDSPEDKKHPHVSIEVNRILLKSKDLLRQLPASHFNSLHYLIAHLRRVVDHAEENKMNSKNLGVIFGPTLIRPRPTTAPVTISSLAEYSNQARLVEFLITYSQKIFDGSLQPQAVVISNTGAVAPQVDQGYLPKPLLSPDERDTDHSMKPLFFSSKEDIRSSDCESKSFELTTSFEESERRQNALGKCDAPLLDNKVHLLFDQEHESASQKMEDVCKSPKLLLLKSNRAANSVQRHTPRTKMRPVSLPVDRLLLLASSPTERSSRDVGNVDSDKFGKNPAFEGLHRKDNSNTTRSKVNGFDQQNVQKSWDTQYVRNNFTAKTTMIVPSAYPEKGLTVNTGNNRDHPGSKAHAEPARAAGDVSERRSSDSCPATAVRAPRTLQPQHWTTFYKPPNPTFSVRGTEEKTALPSIAVPPVLVHAPQIHVTKSDPDSEATLACPVQTSGQPKESSEEPALPEGTPTCQRPRLKRMQQFEDLEDEIPQFV
B4: Rho GTPase Activating Protein 35 (protein, UniProt Q91YM2 1-1499)
chain: MMMARKQDVRIPTYNISVVGLSGTEKEKGQCGIGKSCLCNRFVRPSADEFHLDHTSVLSTSDFGGRVVNNDHFLYWGEVSRSLEDCVECKMHIVEQTEFIDDQTFQPHRSTALQPYIKRAAATKLASAEKLMYFCTDQLGLEQDFEQKQMPDGKLLVDGFLLGIDVSRGMNRNFDDQLKFVSNLYNQLAKTKKPIVVVLTKCDEGVERYIRDAHTFALSKKNLQVVETSARSNVNVDLAFSTLVQLIDKSRGKTKIIPYFEALKQQSQQIATAKDKYEWLVSRIVKNHNENWPSVSRKMQASPEYQDYVYLEGTQKAKKLFLQHIHRLKHEHIERRRKLYLAALPLAFEALIPNLDEVDHLSCIKAKKLLETKPEFLKWFVVLEETPWDATSHIDNMENERIPFDLMDTVPAEQLYETHLEKLRNERKRAEMRRAFKENLETSPFITPGKPWEEARSFIMNEDFYQWLEESVYMDIYGKHQKQIIDRAKEEFQELLLEYSELFYELELDAKPSKEKMGVIQDVLGEEQRFKALQKLQAERDALILKHIHFVYHPTKETCPSCPACVDAKIEHLISSRFIRPSDRNQKNSLSDLNIDRINLVILGKDGLARELANEIRALCTNDDKYVIDGKMYELSLRPIEGNVRLPVNSFQTPTFQPHGCLCLYNSKESLSYVVESIEKSRESTLGRRDNHLVHLPLTLILVNKRGDTSGETLHSLIQQGQQIASKLQCVFLDPASAGIGYGRNINEKQISQVLKGLLDSKRNLNLVSSTASIKDLADVDLRIVMCLMCGDPFSADDVLSPVLQSQTCKSSHCGSSNSVLLELPIGLHKKRIELSVLSYHSSFSIRKSRLVHGYIVFYSAKRKASLAMLRAFLCEVQDIIPIQLVALTDGAIDVLDNDLSREQLTEGEEIAQEIDGRFTSIPCSQPQHKLELFHPFFKDVVEKKNIIEATHMYDNVAEACSTTEEVFNSPRAGSPLCNSNLQDSEEDVEPPSYHLFREDATLPSLSKDHSKFSMELEGNDGLSFIMSNFESKLNNKVPPPVKPKPPVHFDITKDLSYLDQGHREGQRKSMSSSPWMPQDGFDPSDYAEPMDAVVKPRNEEENIYSVPHDSTQGKIITIRNINKAQSNGSGNGSDSEMDTSSLERGRKVSAVSKPVLYRTRCTRLGRFASYRTSFSVGSDDELGPIRKKEEDQASQGYKGDNAVIPYETDEDPRRRNILRSLRRNTKKPKPKPRPSITKATWESNYFGVPLTTVVTPEKPIPIFIERCIEYIEATGLSTEGIYRVSGNKSEMESLQRQFDQDHNLDLAEKDFTVNTVAGAMKSFFSELPDPLVPYSMQIDLVEAHKINDREQKLHALKEVLKKFPKENHEVFKYVISHLNKVSHNNKVNLMTSENLSICFWPTLMRPDFSSMDALTATRSYQTIIELFIQQCPFFFYNRPISEPPGAAPGSPSAMAPTVPFLTSTPATSQPSPPQSPPPTPQSPMQPLLSSQLQAEHTL
B5: Glutamine Rich 1 (protein, UniProt Q3UA37 1-777)
chain: MNNSLENTISFEEYIRVKARSVPQHRMKEFLDSLASKGPEALQEFQQTATTTMVYQQGGNCIYTDSTEVAGSLLELACPVTTSVQPQTQQEQQIQVQQPQQVQVQVQVQQSPQQVSAQQLSPQFTVHQPAEQPIQVQVQIQGQAPQSAAPSIQTPSLQSPSPSQLQAAQIQVQHVQAAQQIQAAEIPEEHIPHQQIQAQLVAGQSLAGGQQIQIQTVGALSPPPSQQGSPREGERRVGTASVLQPVKKRKVDMPITVSYAISGQPVATVLAIPQGQQQSYVSLRPDLLTVDSAHLYSATGTITSPTGETWTIPVYSAQPRGDPQQQSITHIAIPQEAYNAVHVSGSPKALAAVKLEDDKEKMVGTTSVVKNSHEEVVQTLANSLFPAQFMNGNIHIPVAVQAVAGTYQNTAQTVHIWDPQQQPQQQTAQEQTPPPQQQQQQLQVTCSAQTVQVAEVEPQSQPQPSPELLLPNSLKPEEGLEVWKNWAQTKNAELEKDAQNRLAPIGRRQLLRFQEDLISSAVAELNYGLCLMTREARNGEGEPYDPDVLYYIFLCIQKYLFENGRVDDIFSDLYYVRFTEWLHEVLKDVQPRVTPLGYVLPSHVTEEMLWECKQLGAHSPSTLLTTLMFFNTKYFLLKTVDQHMKLAFSKVLRQTKKSPSNPKDKSTSIRYLKALGIHQTGQKVTDDMYAEQTENPENPLRCPIKLYDFYLFKCPQSVKGRNDTFYLTPEPVVAPNSPIWYSVQPISREQMGQMLTRILVIREIQEAIAVANATTMH
B6: 2′-5′-Oligoadenylate Synthetase 2 (protein, UniProt E9Q9A9 1-742)
chain: MGNWLTGNWSSDRSSGYSSGWSPGGSSGVPSGPVHKLEKSIQANLTPNENCLKQIAVSSVPSQKLEGYIQENLKPNRESLKQIDQAVDAIWDLLRSQIPVKEVAKGGSYGRETALRGCSDGTLVLFMDCFQQFQDQIKYQDAYLDVIELWLKIHEKKSVKHEHALVVQVSVPGQRILLQLLPVFNPLRSNENPSSCVYVDLKKSMDQVRASPGEFSDCFTTLQQRFFKKYPQRLKDLILLVKHWYEQCQEKWKTPPPQPLLYALELLTVYAWEQGCQAEDFDMAQGVRTVLRLIQRPTELCVYWTVNYNFEDETVRNILLHQLRSQRPVILDPTDPTNNVGKDDGFWELLTEEAMAWLYSPSLNTESPAPYWDVLPMPLFVTPSHLLNKFIKDFLQPNKLFLKQIKEAVDIICSFLKNVCFLNSDTKVLKTVKGGSTAKGTALKRGSDADIVVFLSSLESYDSLKTNRSQFVQEIQKQLEEFVQAQEWEVTFEISKWKAPRVLSFTLKSKTLNESVEFDVLPAYDALGQLRSDFTLRPEAYKDLIELCASQDIKEGEFSICFTELQRNFIQTRPTKLKSLLRLIKHWYKQYERKMKPKASLPPKYALELLTVYAWEQGSGTDDFDIAEGFRTVLDLVIKYRQLCIFWTVNYNFEEEYMRKFLLTQIQKKRPVILDPADPTGDVGGGDRWCWHLLAEEAKEWLSSPCFQVEQKGLVQPWKVPVMQTPGSCGGQIYPTVGGVTK
B7: OTU Deubiquitinase 7B (protein, UniProt B2RUR8 1-840)
chain: MTLDMDAVLSDFVRSTGAEPGLARDLLEGKNWDVSAALSDFEQLRQVHAGNLSPPFSGGSTCPKTPEKGGSDREPTRPSRPILQRQDDVIQEKRLSRGISHASSSIVSLARSHVSSNGGGGGSSEHPLEMPICAFQLPDLTVYKEDFRSFIERDLIEQSMLVALEQAGRLNWWVSMDSTCQRLLPLATTGDGNCLLHAASLGMWGFHDRDLVLRKALYALMEKGVEKEALRRRWRWQQTQQNKESGLVYTEDEWQKEWNELIKLASSEPRMHLGSNGASGGGVESSEEPVYESLEEFHVFVLAHVLKRPIVVVADTMLRDSGGEAFAPIPFGGIYLPLEVPASQCHRSPLVLAYDQAHFSALVSMEQKESAKEQAVIPLTDSEHKLLPLHFAVDPGKGWEWGKDDNDNVRLASIILSLEVKLHLLHSYMNVKWIPLSSDSQAPLAQPESPTASAGDEPRSTPESGESDKESVGSSSLGNEGSRRKEKSKRDREKDKKRADSVANKLGSFGKTLGSKLKKNMGGLMHSKGPKPGGLGSGSGISSGTETLEKKKKNNTLKSWKGGKEEAAGDGPVSEKPPSESVGNGGSKYSQEVMQSLSTMRIAMQGEGKYIFVGTLKMGHRHQYQEEMIQRYLADAEERFLAEQKQKEVERKIMNGGLVSGPPPAKKPEPDGGEDQPSDSPAEPKAMAFSTAYPGGFTIPRPSGGGVHCQEPRRQLAGGPCVGGLPSYATFPRQYPGRPYPHQDNIPALEPGKDGVHRGALLPPQFRVADSYSNGYREPPEPDGWAGAPRGLPPTQTKCKQPNCSFYGHPETNNLCSCCYREELRRREREPGGELLAHRF

This assay has as its target WT PD-L1 (programmed death ligand 1) tagged with GFP (mouse) (UniProt Q9EP73). The assay is described as follows: affinity purification with mass spectrometry; GFP-tagged PD-L1 precipitated from SVEC4-10 lysate overnight with GST-tagged anti-GFP nanobody on GST beads, washed 4x in TBS with 0.1% Tween-20; cells with or without sodium vanadate; in-gel trypsin digest, LC-MS/MS; N = 6 samples per cell type.
As for B1, the binding entry is on record as “binds”. As to B2, the binding result is reported as “binds”.

Regarding B3, the binding entry was “binds”. The value for B4 was “binds”; that for B5 was “binds”; that for B6 was “binds”. With B7 the entry was “binds”.
